Test results taken from PMC11570452, “MOTS-c modulates skeletal muscle function by directly binding and activating CK2” (iScience, 2024).
Results are given in words; binding and its absence hold for the method and conditions named. In cells and extracts the contact can be indirect. A yes stands for co-enrichment or nearness to the bait. Other partners may have been found.

By UniProt entry, the sequences of proteins in these tests, tags left out. Where a name states a change or a piece, a line headed by the entry shows the natural chain unless it says otherwise.
UniProt Q60737: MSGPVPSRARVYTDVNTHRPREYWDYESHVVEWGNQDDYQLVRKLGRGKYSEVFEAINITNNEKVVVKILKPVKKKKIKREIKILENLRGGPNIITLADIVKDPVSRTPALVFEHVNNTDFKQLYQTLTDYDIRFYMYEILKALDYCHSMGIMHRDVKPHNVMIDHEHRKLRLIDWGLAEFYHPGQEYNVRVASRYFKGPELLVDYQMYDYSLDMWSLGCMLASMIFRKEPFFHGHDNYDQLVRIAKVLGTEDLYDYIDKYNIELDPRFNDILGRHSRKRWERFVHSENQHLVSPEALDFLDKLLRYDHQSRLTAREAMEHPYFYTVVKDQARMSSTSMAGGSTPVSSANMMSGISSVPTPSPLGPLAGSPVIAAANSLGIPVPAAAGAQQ
UniProt Q0VAW6: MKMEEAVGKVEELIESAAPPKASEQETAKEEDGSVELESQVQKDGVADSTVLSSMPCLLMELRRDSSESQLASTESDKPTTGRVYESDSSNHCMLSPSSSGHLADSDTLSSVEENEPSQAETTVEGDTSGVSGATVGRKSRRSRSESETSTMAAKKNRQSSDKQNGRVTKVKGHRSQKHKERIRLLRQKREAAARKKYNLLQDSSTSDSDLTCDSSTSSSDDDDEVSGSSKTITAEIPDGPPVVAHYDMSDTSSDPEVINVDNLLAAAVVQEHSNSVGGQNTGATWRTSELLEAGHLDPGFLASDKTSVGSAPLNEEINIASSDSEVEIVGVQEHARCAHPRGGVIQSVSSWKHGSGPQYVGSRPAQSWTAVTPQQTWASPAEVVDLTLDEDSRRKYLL
UniProt O54833: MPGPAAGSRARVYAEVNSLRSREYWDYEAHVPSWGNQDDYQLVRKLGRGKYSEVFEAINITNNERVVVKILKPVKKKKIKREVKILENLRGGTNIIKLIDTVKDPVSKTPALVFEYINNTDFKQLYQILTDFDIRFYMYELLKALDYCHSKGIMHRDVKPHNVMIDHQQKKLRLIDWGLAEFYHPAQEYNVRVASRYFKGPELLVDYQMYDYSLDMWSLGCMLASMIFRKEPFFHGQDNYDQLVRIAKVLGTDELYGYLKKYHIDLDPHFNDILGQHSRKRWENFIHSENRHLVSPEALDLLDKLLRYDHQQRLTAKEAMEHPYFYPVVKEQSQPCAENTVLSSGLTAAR
UniProt P21107: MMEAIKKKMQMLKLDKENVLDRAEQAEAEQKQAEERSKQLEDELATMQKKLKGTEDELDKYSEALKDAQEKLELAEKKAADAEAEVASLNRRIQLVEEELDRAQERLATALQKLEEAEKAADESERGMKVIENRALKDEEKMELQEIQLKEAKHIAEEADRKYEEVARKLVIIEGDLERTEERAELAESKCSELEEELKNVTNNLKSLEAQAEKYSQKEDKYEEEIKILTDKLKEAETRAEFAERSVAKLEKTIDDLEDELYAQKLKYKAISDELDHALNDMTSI

These substances were tested against CK2α, endogenous in mouse tissues (mouse (endogenous in C57BL/6J gastrocnemius muscle, epididymal fat, liver)) (UniProt Q60737) (assay: affinity purification with mass spectrometry; CK2α immunoprecipitation (rabbit IgG as control) from gastrocnemius muscle and epididymal fat of mice 30 min after MOTS-c or sterilized water; LC-MS/MS, n = 3 per condition).

| Substance | binding |
| --- | --- |
| 8030462N17Rik (from UniProt Q0VAW6) | binds |
| CK2α′, endogenous in mouse tissues (from UniProt O54833 1-350) (enzyme) | binds |
| tropomyosin 3 (TPM3) (from UniProt P21107 1-285) | binds |
